Test results taken from the supplement of paper PMC12823440, “Inhibitors supercharge kinase turnover through native proteolytic circuits” (Nature, 2025).
The other results are listed elsewhere or left out. The calls rarely recur for the same compound in another form.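 Kinases were expressed as nanoluciferase fusions in K562 cells and luminescence was read every 4 h between 2 and 18 h as percent of control, DMSO set to 100% and a positive control to 0%. A time point counts as decreased when the signal drops significantly (2 sigma). The hit call is the authors' own, does not follow from the count of time points alone, and its rule is not shown.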

Protein sequences, listed by entry. Tags and fused reporters are not part of them. Lines headed by an entry give the natural chain unless they say otherwise; changes in a name come on top.
UniProt P23458: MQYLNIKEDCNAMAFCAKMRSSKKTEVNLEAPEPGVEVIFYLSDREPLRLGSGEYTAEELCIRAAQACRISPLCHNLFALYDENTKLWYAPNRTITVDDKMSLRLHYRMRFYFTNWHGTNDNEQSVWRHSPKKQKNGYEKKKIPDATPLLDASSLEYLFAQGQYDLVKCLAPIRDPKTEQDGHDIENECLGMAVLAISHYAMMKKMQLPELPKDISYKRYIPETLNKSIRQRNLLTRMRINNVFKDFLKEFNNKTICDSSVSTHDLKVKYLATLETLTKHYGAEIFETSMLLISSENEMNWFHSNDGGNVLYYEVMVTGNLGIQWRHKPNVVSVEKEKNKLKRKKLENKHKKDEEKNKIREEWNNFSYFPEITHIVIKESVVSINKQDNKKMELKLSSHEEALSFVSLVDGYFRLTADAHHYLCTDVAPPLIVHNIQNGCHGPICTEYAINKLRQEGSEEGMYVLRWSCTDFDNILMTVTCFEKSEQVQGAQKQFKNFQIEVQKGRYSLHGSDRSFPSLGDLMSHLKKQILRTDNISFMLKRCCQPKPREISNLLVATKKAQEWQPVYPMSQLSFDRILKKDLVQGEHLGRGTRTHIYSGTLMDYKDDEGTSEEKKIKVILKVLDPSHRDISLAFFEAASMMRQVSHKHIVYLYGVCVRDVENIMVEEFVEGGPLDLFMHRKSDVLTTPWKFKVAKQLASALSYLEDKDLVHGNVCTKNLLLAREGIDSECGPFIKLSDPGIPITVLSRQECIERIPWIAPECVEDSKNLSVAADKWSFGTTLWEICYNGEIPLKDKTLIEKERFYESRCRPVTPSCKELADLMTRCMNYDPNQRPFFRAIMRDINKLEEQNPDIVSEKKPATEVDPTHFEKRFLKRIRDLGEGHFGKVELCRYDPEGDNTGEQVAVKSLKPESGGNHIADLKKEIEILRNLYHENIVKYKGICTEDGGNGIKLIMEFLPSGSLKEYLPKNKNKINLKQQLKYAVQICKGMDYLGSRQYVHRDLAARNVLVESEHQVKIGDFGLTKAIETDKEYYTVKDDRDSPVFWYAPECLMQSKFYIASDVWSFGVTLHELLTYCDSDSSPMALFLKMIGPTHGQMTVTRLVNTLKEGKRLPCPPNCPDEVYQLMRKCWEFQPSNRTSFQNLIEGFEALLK

Each molecule was assayed against JAK1 (UniProt P23458) (assay: kinase-Nluc reporter destabilization hit call (1 = scored as downregulated) (binary); higher = compound decreases kinase abundance). Conditions: K562; 2-18 h.

kinase-Nluc reporter destabilization hit call, inactive:
O=C1O[C@H]([C@@H](O)CO)C(O)=C1OP(=O)(O)O [2-Phospho-L-ascorbic acid (trisodium)] (10 µM) 0
Cn1cnc([N+](=O)[O-])c1C[N+](C)(C)C/C=C/C(=O)Nc1cc2c(Nc3ccc(Cl)c(Br)c3)ncnc2cn1 [Tarloxotinib (bromide)] (10 µM) 0
CC1(C)Cc2c(sc(NC(=S)NC(=O)c3ccccc3)c2C(=O)O)CO1 (10 µM) 0
CCCCCCCCCCCCCCCCOP(=O)([O-])OCC[N+](C)(C)C [Miltefosine] (10 µM) 0
N#CC(c1ccnc(OCc2ccc(CN3CCOCC3)cc2)n1)c1nc2ccccc2s1 (stereo not drawn) [Bentamapimod] (2.5 µM) 0
Cc1cnc(-c2ccc(-c3ccc(NC(=O)Nc4cccc(C(F)(F)F)c4)cc3F)c3c2C(=O)NC3)[nH]1 (10 µM) 0
CC(C)=CC(=O)O[C@H]1Cc2cc3ccc(=O)oc3cc2OC1(C)C [Decursin] (10 µM) 0
O=C(N[C@@H](C1CC1)C(F)(F)F)c1cc(-c2cnn3cc(-c4ccc(F)cc4)cnc23)cs1 (10 µM) 0
CNc1cc(Nc2cccn(-c3ccccn3)c2=O)nn2c(C(=O)N[C@@H]3C[C@@H]3F)cnc12 (2.5 µM) 0
CS(=O)(=O)c1ccc(-c2cnc(N)c(-c3ccc(C(F)(F)F)nc3)c2)cc1 (10 µM) 0
CN(c1ccc(NC(=O)Nc2ccc(OC(F)(F)F)cc2)cc1)c1ccnc(Nc2cccc(S(N)(=O)=O)c2)n1 (2.5 µM) 0
Cc1ccc2c(Nc3cccc(Cl)c3F)nccc2c1NC(=O)c1csc2c(N)ncnc12 [Belvarafenib] (10 µM) 0
COc1nn(C)cc1Nc1nccc(-c2c[nH]c3c(NC(=O)[C@@H](C)N4CCN(C)CC4)cccc23)n1 (10 µM) 0

Pulled by compound from the entries so far (2):
kinase-Nluc reporter destabilization hit call, inactive:
CCCCCCCCCCCCCCCCOP(=O)([O-])OCC[N+](C)(C)C [Miltefosine] (10 µM) 0
O=C(N[C@@H](C1CC1)C(F)(F)F)c1cc(-c2cnn3cc(-c4ccc(F)cc4)cnc23)cs1 (10 µM) 0
